# In all, about 33,000 sequences were measured (“E-score (-0.5 to 0.5)”: median about -0.0014, highest 2% from about 0.25 on). Some of the results follow.
# Biological target: T1, Cad1 (UniProt P24813)
# T1 sequence: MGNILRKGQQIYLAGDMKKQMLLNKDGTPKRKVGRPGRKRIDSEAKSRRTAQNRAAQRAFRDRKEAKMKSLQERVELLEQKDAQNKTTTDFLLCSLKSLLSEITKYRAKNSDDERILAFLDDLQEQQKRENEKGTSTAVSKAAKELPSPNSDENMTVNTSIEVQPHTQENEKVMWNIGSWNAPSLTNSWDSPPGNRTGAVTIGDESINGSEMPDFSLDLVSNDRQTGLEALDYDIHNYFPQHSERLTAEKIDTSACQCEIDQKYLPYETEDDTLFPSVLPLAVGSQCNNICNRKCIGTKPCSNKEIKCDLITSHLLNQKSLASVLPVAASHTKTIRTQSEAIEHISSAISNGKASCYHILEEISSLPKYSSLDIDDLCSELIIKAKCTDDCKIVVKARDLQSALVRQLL
# Assay: PBM E-score (8-mer binding enrichment) (E-score (-0.5 to 0.5)); higher = stronger / more preferred TF binding
# Settings: protein concentration: 100 nM; construct: GST-full length
# Method in brief: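 Using PURExpress in vitro transcription/translation, GST-tagged yeast transcription factors were made in full-length or DNA-binding-domain form. These were applied at about 100-200 nM to double-stranded universal all-10-mer Agilent arrays, and bound protein was detected with fluorescent anti-GST. Scans were normalised with masliner before the Universal PBM Analysis Suite assigned E-scores to ungapped eight-base words pooled with their reverse complements.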
row,Sequence,PBM E-score
1,CCGGCCAA,-0.0872
2,GATTTAAC,-0.0415
3,CTACGGCA,-0.00328
4,GTCGTTCA,-0.044
5,ATTATCCA,0.141
6,GGTTTCTA,-0.0727
7,CTGTGTTA,0.11
8,CACGTTAC,-0.077
9,CTTACTTA,0.0867
10,GGTGTAAA,-0.0674
11,CTACACTA,-0.0764
12,ATTAATCG,0.234
13,ATCACTTA,-0.0137
14,GTGGGGCA,-0.0368
15,GGCTCTGA,-0.195
16,CTGTAGGC,0.0294
17,TCTCATCA,0.0542
18,AATTGTGG,-0.0823
19,ATAGTTAC,-0.0281
20,ACAGGTCG,-0.138
21,AACCAACC,0.0511
22,CAACAACA,0.269
23,GTAGTAGA,-0.0685
24,CGCCAGCA,-0.205
25,TATATGCA,0.12

row,Sequence,PBM E-score
1,TAGTCGAA,0.0593
2,AGTACGAA,0.22
3,ATGCCTCA,-0.0731
4,CGGAGCAG,-0.0854
5,CAGTGGAC,0.0787
6,GCTGGCGA,-0.039
7,ATTATAGC,-0.0558
8,ATGCCACC,-0.309
9,CGGCGAGA,0.158
10,CTACATAC,0.0451
11,ATGCGTAG,0.0673
12,ACGATACT,-0.131
13,CCTGCATC,0.13
14,AATGCCAG,-0.0919
15,CGTCGGAC,-0.0431
16,AAGCGACC,0.124
17,TACAGGGA,-0.196
18,GGAGGACA,-0.135
19,ATGCTTCA,-0.121
20,AATGGCAT,0.111
21,AATACTGA,0.0566
22,AACGACCA,0.0102
23,GGGGGCTA,-0.41
24,AGAACTGG,0.0468
25,GGACCAGA,-0.197

row,Sequence,PBM E-score
1,GAAACAAC,-0.104
2,ACTTTCTA,-0.028
3,CGAGCTGC,-0.0193
4,TAAGACCA,-0.0792
5,ACATACGG,0.109
6,CTCCACCA,-0.193
7,GGTCTAAA,0.0161
8,AAAAGGGC,-0.115
9,AGGTAGAA,-0.164
10,GCACGGAA,0.00167
11,GCGCATCA,0.0478
12,CGAGTTGA,0.0754
13,AGCTGCTC,-0.0947
14,AAAGGTGC,-0.176
15,GGGACTAA,-0.131
16,CACGCAAA,0.0783
17,AATTTCCA,0.105
18,GGTAGGCA,-0.00857
19,CAGCTTAC,0.224
20,AAGTCCAA,0.0926
21,ATCGTACC,-0.18
22,AAACTCTG,-0.00764
23,CGGGCACC,-0.151
24,AAAAGTTC,0.138
25,ATTTTCTA,0.133

# Fetched one by one from above (7):
row,Sequence,PBM E-score
24,AAAAGTTC,0.138
7,GGTCTAAA,0.0161
8,AAAAGGGC,-0.115
9,AGGTAGAA,-0.164
25,ATTTTCTA,0.133
10,GCACGGAA,0.00167
19,CAGCTTAC,0.224

# Later entries:

row,Sequence,PBM E-score
1,GGTACCAA,-0.0224
2,ATGACCGA,-0.118
3,CTACCCGA,0.0466
4,AGAGGCGG,-0.126
5,TAGTGAAA,-0.0548
6,CGTACTAG,0.0749
7,GGACCTTA,-0.121
8,CCCTAGGC,-0.079
9,CTGCAACC,-0.106
10,AACTGATA,0.0697
11,CATTTGAA,0.0921
12,CTCTCCGC,0.0395
13,CCCAGCCG,-0.0415
14,GTACTTTA,-0.131
15,CACTGTCC,0.143
16,GCCGAGCC,0.0157
17,ACACTCGA,0.0775
18,GTTAGTTA,0.155
19,AATAGATG,0.0261
20,CGTGCTGC,0.0297
21,AATTGATC,-0.0161
22,AGTGAGAT,-0.13
23,AGTCCCCG,-0.208
24,GCCCACTA,-0.0305
25,AGCCTATA,0.0222

row,Sequence,PBM E-score
1,GAAACACC,0.125
2,CCGCTGGC,-0.0612
3,CATAAGGG,-0.00535
4,AGAGCACT,-0.0353
5,CGGGTATA,0.0615
6,AGGGTCGG,-0.181
7,CGCAAGTC,-0.199
8,AGTGTATC,0.0261
9,CCCTTGCG,-0.169
10,ATGCGTAA,0.0508
11,TATACCCA,-0.174
12,TCGAAAGA,0.0238
13,CCCAATGA,-0.156
14,AAGGTGCT,0.00352
15,CTAAGCAC,0.294
16,GACTAGGC,-0.0746
17,ACGCGTAG,0.0376
18,CATCACGG,-0.0297
19,CTCCATCC,-0.231
20,AACAACCA,0.173
21,GGTATGGA,0.0414
22,AACTGACC,-0.0719
23,CGATGTAA,0.104
24,ATACAAGA,-0.0454
25,GGATCTAC,-0.169

row,Sequence,PBM E-score
1,AATGCGAC,0.0554
2,CACGGGAC,-0.0278
3,GCCCAAGC,0.00488
4,AAAACTTG,0.0743
5,GCAGCCGC,-0.0809
6,CTAAATTA,0.2
7,GGTCGCCA,-0.186
8,AGTAGCGC,0.193
9,GCTTGGAC,-0.0816
10,TAGAATCA,-0.178
11,ATTAACCC,0.034
12,ACTAGTGA,-0.131
13,CCATCCTA,0.00667
14,CGGGCCAC,0.041
15,CCCATGTC,-0.219
16,CTCCCTTA,-0.221
17,TAGTAAGA,0.265
18,ATAATAAG,0.198
19,CTCGCCCC,-0.182
20,GTGTTGTA,0.063
21,CAACACCC,-0.0252
22,CGGCGGTC,-0.257
23,CCTCACTC,0.0114
24,AGGCTAAC,0.00141
25,GGACATAA,0.102

row,Sequence,PBM E-score
1,AGCACCCC,-0.144
2,AACAAGTC,-0.0382
3,AAGACATA,0.0477
4,CTCGGGGA,-0.0482
5,CTCCAGAA,-0.218
6,ACATCTAT,0.0992
7,CTCGCAAG,0.046
8,AGTATTAA,0.0712
9,ATGGGGCA,-0.0999
10,CAACTGAA,-0.15
11,GGAGATCA,-0.0337
12,ACCCAGGC,-0.0109
13,CCGCCGAA,-0.0118
14,CGCGGGAA,0.18
15,GTGAGTTA,0.00781
16,AGTGATGA,-0.149
17,CGATATCC,0.141
18,AATGAGCG,0.198
19,GCTTAAAA,0.0591
20,CATTTCCA,0.146
21,ATACTGCC,0.0241
22,AATTGGTG,0.216
23,GCGTCCAC,0.00433
24,CGTATAAC,0.133
25,ACGGCGTC,-0.124

row,Sequence,PBM E-score
1,GTCAGGAA,0.0353
2,CAGTGTCC,-0.0177
3,CCACCTTA,-0.0703
4,ATAGCTTG,0.0727
5,ACGCTGAT,0.166
6,AACCGGCT,-0.138
7,GTAAAATA,0.207
8,ATTGAAGG,-0.138
9,CCTGTGAC,-0.132
10,AAGCTGAC,0.242
11,CCGGCATC,-0.11
12,CAAACGGC,-0.207
13,AATAGCGG,-0.0047
14,GAGTATTA,0.0374
15,CCTTCGTC,-0.195
16,CTCCGCCC,-0.108
17,GCAGAGTA,-0.0109
18,GAGATTGC,-0.088
19,AGCGTAGC,-0.0175
20,AAAAGGAC,-0.117
21,AACCACTG,0.0784
22,ACCGACCC,-0.152
23,GAGCCCGA,0.0741
24,ACCGCAGT,-0.0705
25,AGCCCGCA,0.0417

row,Sequence,PBM E-score
1,ACCTGAGA,-0.0465
2,CCCTCTAC,-0.322
3,AATGATTC,0.0808
4,AAATGCCG,0.124
5,TCGGAGCA,-0.135
6,CCGAACCA,-0.187
7,AGGCGACT,-0.131
8,CCTAAGGA,-0.0179
9,AGAAAGCG,-0.0665
10,ACTTCGGA,0.136
11,CCCTATGC,-0.0516
12,CTTACTCC,0.0513
13,ATGGGTAA,0.0692
14,GTGGCAAC,0.0625
15,ACTCCCCA,-0.159
16,AGTGTCTA,0.145
17,CCGCCCCA,0.113
18,CGTAATCA,0.336
19,ACTTACAA,0.278
